According to paper doi:10.1101/2024.10.21.619419 (bioRxiv, 2024):

Biological target: Bxb1 integrase (WT) (Mycobacteriophage Bxb1) (UniProt Q9B086)
Test: EMSA
Settings: residues 2-500

With “GTGTAGCGTCGCTACGCGCCATTGTCAGCACAAGAGTGGTTTGTCTGGTCAACCACCGCGGTCTCCGTCGTCAGGATCATCCGGTCGCTATCTAGCGAGTTCGCGCGCTCTGTG (double strand) [Bxb1 attR (115 bp)]” the pKd was 8.52.

pKd: −log10 of the molar value. Construct, isoform or probe ends are uncertain for at least one entry.
